The assay in a line: qHTS Assay for Lipid Storage Modulators in Drosophila S3 Cells.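 As to cell number change: cells counted by Cell Tracker Red CMTPX staining in the red channel.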 The conditions noted are these: BODIPY lipid droplet fluorescence, 18-24 h; for cell number change: measured here: cell count max response, cells fed with added oleic acid. The procedure, abridged:
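Drosophila S3 cells loaded with oleic acid (400 uM, as added) and compounds at several concentrations; lipid droplets imaged by 488-nm laser-scanning cytometry, 500–530 nm intensity and object ratio to cell channel. Percent activity normalized to 20 uM Triacsin C.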
(qHTS replaces the single test concentration by a dilution series.)

[1] abbreviates: measured here: lipid fluorescence (Fed channel) AC50, cells fed with added oleic acid.
Setting [2] is: measured here: cell number channel AC50, cells fed with added oleic acid.

The other results are listed elsewhere or left out. These are further read-outs of the screen, such as a control signal, another cell line or another target. No call is given for them. The list favours compounds with an active or inconclusive main result. Potencies come from curve fits of mixed quality, noted in brackets.

As a reminder, the AC50 is the concentration at which the activity in the assay is half-maximal. High values mean activity only at high concentration, low ones activity at low concentration. Turning to `CCO[C@H]1OC(C(=O)Nc2ccccc2)=C[C@@H](c2ccc(C(F)(F)F)cc2)[C@@H]1CCCO`, the cell number change was -9.14%. Further, the AC50 under setting [1] was 29.1 µM [falling, single point]. With `N=C1/C(=C/c2ccc(-c3cccc(C(=O)O)c3)o2)C(=O)N=C2SC=C(c3ccccc3)N12`, the cell number change was -8.27%. The concentration at half-maximal activity (AC50) under setting [2] is 0.0206 µM [falling, full curve, poor fit]. Besides, under setting [1], the AC50 is 3.26 µM [falling, single point]. With `O=C(OCC(=O)N1CCCc2ccccc21)c1ccc(C(F)(F)F)cc1`, the cell number change is -17.2%. In addition, the AC50 under setting [1] was 3.66 µM [falling, single point]. As to `CCOC(=O)N1CCN(c2nc(C)c3c(n2)CCCC3=O)CC1`, the half-maximal activity concentration (AC50) under setting [1] is 1.16 µM [falling, full curve]. `O=C(Cn1c(-c2ccc(Cl)cc2)noc1=O)N1CCN(c2ccccc2F)CC1`: the cell number change was -6.98%. Further, the half-maximal activity concentration (AC50) under setting [1] was 0.13 µM [falling, full curve, poor fit]. As to `c1ccc2c(c1)OCC(c1csc3ncnc(N4CCOCC4)c13)O2` (stereo unspecified), the cell number change was 24.1%. Consider `CC(/C=C/c1ccco1)=N\NC(=O)C(O)c1ccccc1` (stereo unspecified), for which the cell number change is -7.06%. The half-maximal activity concentration (AC50) under setting [1] was 1.84 µM [rising, partial curve]. For the molecule `O=C(CSc1ccc2c(c1)OCCO2)Nc1ccc(Cl)cn1`, the cell number change is -0.65%. Further, the AC50 under setting [1] was 3.66 µM [rising, single point].

Consider `COc1ccc(CCNc2cc(N3CCN(C(=O)c4ccc(C)cc4)CC3)ccc2[N+](=O)[O-])cc1OC`, for which the cell number change came to 13.5%. Besides, the half-maximal activity concentration (AC50) under setting [2] was 6.51 µM [falling, single point]. The AC50 under setting [1] is 6.51 µM [falling, single point]. For `COC(c1ccccc1)c1nnc(CCC(=O)NCCC(C)C)o1` (stereo unspecified), the cell number change was -31.5%. Also, the AC50 under setting [2] is 8.2 µM [falling, partial curve, poor fit]. Further, under setting [1], the half-maximal activity concentration (AC50) is 16.4 µM [falling, single point]. In the case of `Cc1ccccc1NC(=O)COc1coc(CN2CCN(Cc3ccccc3)CC2)cc1=O`, the concentration at half-maximal activity (AC50) under setting [2] is 6.51 µM [falling, single point] and the AC50 under setting [1] is 0.00411 µM [rising, full curve, poor fit]. As for `Cc1ccc(NC(=O)c2oc3c(c2C)C(=O)CC(C)(C)C3)cc1`, the cell number change came out at 11.7%. In addition, the AC50 under setting [1] was 6.51 µM [rising, single point]. Consider `NC(=O)C1CCN(C(=O)c2ccc(Oc3ccccc3)cc2)CC1`, for which the AC50 under setting [1] is 0.116 µM [falling, full curve, poor fit].

`COc1ccc(Br)cc1CN(C)CC(O)COc1ccc(Br)cc1` (stereo unspecified): the cell number change was 3.81%. With `Cc1nc2c(sc(=S)n2Cc2ccco2)c(=O)n1CC(=O)Nc1ccccc1F`, the cell number change stood at 7.03%. Under setting [1], the concentration at half-maximal activity (AC50) is 18.4 µM [rising, single point]. For `CCOc1ccc(-n2c(Cc3cc(=O)[nH]c(=O)[nH]3)nnc2SCc2cccnc2)cc1`, the cell number change was -3.29%. Also, the AC50 under setting [1] was 1.84 µM [falling, partial curve].

The values above are taken from PubChem BioAssay AID2685 (National Center for Advancing Translational Sciences (NCATS), 2010).
